Experimental data from the supplement of paper PMC7666118.
Some of the results follow.

Sequences of proteins named here, by UniProt entry; tags and fusion partners are left off. A change or cut given only in a name is not applied to a line headed by its entry.
UniProt Q9UBS0: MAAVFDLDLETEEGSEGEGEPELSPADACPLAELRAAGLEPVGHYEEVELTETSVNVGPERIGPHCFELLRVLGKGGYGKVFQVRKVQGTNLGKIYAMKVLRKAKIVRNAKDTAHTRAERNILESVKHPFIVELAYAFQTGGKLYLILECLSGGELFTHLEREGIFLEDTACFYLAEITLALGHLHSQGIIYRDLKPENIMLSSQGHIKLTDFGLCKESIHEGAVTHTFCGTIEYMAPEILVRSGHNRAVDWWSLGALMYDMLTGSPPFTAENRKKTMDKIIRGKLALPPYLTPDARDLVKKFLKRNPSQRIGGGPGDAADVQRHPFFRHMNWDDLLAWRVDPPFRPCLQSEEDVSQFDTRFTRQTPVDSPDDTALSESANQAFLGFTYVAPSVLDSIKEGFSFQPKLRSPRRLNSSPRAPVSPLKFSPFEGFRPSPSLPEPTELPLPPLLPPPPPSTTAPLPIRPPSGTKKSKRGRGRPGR
UniProt P35244: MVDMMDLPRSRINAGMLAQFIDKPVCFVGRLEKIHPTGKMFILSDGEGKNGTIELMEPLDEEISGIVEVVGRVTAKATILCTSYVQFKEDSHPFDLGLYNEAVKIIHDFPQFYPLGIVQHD
UniProt Q9HB40: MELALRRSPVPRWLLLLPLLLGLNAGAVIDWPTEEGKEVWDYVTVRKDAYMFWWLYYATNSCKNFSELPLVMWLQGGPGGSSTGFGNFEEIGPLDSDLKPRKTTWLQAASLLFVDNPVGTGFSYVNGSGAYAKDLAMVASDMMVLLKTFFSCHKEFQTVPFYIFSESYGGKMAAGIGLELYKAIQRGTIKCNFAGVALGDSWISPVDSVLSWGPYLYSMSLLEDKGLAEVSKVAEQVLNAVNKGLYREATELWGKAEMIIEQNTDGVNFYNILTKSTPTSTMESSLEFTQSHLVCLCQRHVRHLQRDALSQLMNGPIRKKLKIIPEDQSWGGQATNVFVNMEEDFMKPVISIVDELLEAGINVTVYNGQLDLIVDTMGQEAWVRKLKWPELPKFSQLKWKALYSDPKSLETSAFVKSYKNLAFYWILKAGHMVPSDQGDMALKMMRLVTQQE
UniProt Q15800: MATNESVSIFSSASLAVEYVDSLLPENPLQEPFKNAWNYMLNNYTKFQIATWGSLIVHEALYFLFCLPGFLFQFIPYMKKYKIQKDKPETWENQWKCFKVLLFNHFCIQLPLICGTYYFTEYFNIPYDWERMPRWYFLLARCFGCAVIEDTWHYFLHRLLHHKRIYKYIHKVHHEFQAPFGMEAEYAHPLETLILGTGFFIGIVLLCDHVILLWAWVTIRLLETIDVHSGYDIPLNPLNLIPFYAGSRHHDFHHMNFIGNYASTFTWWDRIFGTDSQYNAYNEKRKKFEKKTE
UniProt O75995: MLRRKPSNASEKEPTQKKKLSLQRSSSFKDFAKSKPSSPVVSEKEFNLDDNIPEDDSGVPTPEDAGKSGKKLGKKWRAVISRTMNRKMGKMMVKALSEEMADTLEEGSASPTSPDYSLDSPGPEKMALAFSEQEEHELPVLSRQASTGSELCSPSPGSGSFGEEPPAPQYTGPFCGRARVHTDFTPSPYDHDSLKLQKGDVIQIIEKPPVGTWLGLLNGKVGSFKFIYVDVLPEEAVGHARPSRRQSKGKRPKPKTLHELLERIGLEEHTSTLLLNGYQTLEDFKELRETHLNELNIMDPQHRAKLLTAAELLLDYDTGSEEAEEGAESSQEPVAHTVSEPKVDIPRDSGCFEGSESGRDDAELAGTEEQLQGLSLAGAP
UniProt O95486: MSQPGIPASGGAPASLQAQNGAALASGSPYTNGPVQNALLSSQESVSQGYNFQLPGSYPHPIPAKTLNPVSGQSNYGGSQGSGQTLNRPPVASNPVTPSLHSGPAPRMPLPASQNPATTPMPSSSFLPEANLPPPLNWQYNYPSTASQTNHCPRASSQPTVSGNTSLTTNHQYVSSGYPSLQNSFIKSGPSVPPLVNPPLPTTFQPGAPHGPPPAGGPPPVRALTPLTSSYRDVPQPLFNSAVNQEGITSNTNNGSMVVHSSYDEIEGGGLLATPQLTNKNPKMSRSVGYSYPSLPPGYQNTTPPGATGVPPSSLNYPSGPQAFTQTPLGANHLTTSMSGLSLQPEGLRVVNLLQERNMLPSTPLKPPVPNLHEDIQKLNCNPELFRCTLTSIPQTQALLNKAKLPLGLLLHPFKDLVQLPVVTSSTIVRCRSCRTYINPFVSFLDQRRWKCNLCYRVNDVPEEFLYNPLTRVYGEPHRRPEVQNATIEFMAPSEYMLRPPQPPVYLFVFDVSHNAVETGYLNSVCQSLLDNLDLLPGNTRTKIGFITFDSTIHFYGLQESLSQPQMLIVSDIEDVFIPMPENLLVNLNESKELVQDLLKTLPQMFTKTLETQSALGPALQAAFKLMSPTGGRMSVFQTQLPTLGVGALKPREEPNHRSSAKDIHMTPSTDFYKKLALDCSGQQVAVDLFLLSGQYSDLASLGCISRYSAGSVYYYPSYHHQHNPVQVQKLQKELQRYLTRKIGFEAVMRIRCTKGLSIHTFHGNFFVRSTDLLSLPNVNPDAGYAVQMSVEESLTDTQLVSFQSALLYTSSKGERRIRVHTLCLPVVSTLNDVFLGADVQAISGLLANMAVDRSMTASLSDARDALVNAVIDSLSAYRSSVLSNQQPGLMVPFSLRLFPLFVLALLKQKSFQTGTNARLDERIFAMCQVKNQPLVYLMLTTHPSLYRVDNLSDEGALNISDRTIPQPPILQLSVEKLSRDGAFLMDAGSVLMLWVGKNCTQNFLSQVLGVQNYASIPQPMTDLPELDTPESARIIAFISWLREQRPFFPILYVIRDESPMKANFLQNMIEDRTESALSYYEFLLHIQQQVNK
UniProt P78345: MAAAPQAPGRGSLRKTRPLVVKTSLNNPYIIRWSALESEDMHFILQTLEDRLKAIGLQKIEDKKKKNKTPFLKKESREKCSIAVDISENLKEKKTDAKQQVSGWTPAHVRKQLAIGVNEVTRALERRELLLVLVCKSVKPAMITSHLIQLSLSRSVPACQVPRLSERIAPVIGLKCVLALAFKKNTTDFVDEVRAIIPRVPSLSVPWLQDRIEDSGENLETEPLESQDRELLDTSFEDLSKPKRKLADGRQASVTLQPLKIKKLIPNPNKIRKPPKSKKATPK
UniProt Q9Y6B6: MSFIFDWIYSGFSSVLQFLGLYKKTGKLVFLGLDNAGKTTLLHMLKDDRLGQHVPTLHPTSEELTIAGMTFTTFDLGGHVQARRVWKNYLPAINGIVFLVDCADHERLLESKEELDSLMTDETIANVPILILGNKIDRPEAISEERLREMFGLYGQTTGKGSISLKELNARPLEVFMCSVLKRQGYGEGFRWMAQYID
UniProt Q9UBF6, whole entry: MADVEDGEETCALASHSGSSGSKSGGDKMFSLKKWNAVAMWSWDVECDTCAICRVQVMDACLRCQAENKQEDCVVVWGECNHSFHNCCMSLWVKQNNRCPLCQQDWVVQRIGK
UniProt P78346: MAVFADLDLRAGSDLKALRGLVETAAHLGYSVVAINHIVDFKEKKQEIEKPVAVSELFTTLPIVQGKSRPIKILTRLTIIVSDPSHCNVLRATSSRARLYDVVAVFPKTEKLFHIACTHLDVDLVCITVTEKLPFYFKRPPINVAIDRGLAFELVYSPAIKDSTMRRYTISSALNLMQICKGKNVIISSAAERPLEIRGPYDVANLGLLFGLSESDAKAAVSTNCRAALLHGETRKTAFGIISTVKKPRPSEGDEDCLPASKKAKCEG
UniProt O00442: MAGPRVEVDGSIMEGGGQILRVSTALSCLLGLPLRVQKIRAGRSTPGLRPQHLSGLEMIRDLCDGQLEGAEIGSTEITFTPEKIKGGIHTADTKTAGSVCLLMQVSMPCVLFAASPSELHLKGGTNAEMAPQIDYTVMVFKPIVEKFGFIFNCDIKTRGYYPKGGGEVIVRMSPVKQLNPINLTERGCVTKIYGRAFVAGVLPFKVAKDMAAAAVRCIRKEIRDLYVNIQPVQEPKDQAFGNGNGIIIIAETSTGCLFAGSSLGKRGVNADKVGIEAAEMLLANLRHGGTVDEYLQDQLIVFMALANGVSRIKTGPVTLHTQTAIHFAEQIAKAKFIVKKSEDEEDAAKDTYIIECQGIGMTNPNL
UniProt O95977: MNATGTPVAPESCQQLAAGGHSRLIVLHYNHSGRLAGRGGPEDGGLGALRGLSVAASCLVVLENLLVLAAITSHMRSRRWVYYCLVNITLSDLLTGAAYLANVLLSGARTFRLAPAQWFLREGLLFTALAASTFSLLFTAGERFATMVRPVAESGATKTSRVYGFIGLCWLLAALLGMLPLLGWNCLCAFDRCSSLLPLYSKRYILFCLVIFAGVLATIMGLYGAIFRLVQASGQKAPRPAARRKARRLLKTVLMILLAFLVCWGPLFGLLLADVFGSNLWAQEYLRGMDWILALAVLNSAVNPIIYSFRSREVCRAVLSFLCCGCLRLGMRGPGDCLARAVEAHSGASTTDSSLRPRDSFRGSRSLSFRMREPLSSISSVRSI
UniProt Q6UX04: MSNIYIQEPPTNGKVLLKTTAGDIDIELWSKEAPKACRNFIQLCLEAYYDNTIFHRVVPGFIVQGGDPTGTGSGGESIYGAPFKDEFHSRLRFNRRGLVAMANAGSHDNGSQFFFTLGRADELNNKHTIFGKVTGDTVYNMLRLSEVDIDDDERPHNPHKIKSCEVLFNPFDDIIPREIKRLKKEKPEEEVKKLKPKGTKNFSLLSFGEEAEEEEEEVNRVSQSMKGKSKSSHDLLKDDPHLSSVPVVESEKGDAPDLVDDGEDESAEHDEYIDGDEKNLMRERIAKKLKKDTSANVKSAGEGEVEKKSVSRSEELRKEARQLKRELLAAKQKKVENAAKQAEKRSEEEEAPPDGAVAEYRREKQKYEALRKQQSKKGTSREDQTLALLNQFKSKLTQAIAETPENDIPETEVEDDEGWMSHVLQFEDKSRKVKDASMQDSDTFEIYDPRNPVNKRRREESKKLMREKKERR
UniProt Q96GA7: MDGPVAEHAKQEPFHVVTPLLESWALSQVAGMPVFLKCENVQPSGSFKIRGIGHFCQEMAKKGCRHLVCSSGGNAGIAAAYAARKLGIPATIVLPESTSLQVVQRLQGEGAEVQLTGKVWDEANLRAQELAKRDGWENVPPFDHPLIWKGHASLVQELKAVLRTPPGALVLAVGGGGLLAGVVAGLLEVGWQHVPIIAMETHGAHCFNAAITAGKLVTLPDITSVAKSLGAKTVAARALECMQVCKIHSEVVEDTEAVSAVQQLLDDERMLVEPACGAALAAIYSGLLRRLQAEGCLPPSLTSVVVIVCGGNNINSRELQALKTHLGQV
UniProt Q15287: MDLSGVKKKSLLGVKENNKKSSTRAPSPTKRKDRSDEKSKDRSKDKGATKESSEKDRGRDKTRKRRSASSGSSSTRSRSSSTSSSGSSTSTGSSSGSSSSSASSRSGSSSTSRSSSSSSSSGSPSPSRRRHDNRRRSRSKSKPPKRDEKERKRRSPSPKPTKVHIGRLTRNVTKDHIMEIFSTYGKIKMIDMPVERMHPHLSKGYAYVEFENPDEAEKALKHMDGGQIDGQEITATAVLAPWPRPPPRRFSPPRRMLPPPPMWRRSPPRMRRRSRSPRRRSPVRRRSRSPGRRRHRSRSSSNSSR
UniProt O43819: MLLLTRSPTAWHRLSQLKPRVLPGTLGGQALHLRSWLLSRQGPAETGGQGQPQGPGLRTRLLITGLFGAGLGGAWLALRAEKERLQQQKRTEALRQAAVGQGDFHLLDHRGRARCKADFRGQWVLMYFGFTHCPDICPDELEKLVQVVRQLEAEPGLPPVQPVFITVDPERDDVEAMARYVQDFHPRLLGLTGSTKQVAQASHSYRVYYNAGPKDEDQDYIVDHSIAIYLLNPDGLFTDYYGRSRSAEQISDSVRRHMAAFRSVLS
UniProt P23443: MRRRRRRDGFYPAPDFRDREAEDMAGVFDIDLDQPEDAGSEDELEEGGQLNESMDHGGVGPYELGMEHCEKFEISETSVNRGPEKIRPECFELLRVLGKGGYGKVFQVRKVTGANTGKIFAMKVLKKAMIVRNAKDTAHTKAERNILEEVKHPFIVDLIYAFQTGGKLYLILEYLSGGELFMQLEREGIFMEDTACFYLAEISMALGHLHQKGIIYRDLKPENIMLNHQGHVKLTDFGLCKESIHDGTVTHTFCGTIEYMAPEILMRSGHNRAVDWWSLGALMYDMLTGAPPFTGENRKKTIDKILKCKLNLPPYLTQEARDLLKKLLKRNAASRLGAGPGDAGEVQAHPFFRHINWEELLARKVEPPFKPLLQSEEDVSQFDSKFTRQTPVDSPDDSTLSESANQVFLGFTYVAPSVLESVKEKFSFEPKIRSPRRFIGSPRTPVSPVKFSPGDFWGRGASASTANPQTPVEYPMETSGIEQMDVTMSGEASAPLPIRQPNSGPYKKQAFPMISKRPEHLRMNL

Compound: COc1ccc(Cn2ccc3cc(C)c(C(=O)NO)cc32)cc1
Test: dose-dependent thermal stabilisation call (2D-TPP, DLPTP, 10% FDR) (binary (1 = stabilised)); higher = stabilised by the compound
Conditions: system: HL-60 intact cells; concentration range 0.04-10 µM
Experimental: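 2D thermal proteome profiling in intact HL-60 cells treated with BRD-3811 (0, 0.04, 0.29, 2, 10 uM) for 90 min at 37 C, then heated 3 min at one of 12 temperatures (42-63.9 C). Soluble protein was quantified by TMT10 MS. The value is the DLPTP call of the paper: dose-dependent thermal stabilisation over all temperatures at 10% FDR (F-test of a dose-response against a flat model); one experiment, one call per tested protein.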

Row | Target | dose-dependent thermal stabilisation call
1 | RPS6KB2 (UniProt Q9UBS0) | inactive: 0
2 | SCRN3 (UniProt Q0VDG4) | inactive: 0
3 | RP6-213H19 1 | inactive: 0
4 | RNPEP (UniProt Q9H4A4) | inactive: 0
5 | RPA3 (UniProt P35244) | inactive: 0
6 | SEDLP | inactive: 0
7 | SCPEP1 (UniProt Q9HB40) | inactive: 0
8 | SC4MOL (UniProt Q15800) | inactive: 0
9 | RPS28 (UniProt P62857) | inactive: 0
10 | SCYL1 (UniProt Q96KG9) | inactive: 0
11 | SASH3 (UniProt O75995) | inactive: 0
12 | SEMA4A (UniProt Q9H3S1) | inactive: 0
13 | SEC24A (UniProt O95486) | inactive: 0
14 | RPP38 (UniProt P78345) | inactive: 0
15 | RPL28 (UniProt P46779) | inactive: 0
16 | SAR1B (UniProt Q9Y6B6) | inactive: 0
17 | RPL10 (UniProt P27635) | inactive: 0
18 | RNF7 (UniProt Q9UBF6) | inactive: 0
19 | RPL15 (UniProt P61313) | inactive: 0
20 | SCP2 (UniProt P22307) | inactive: 0

Row | Target | dose-dependent thermal stabilisation call
21 | RPP30 (UniProt P78346) | inactive: 0
22 | RPS6KA5 (UniProt O75582) | inactive: 0
23 | RTCD1 (UniProt O00442) | inactive: 0
24 | S1PR4 (UniProt O95977) | inactive: 0
25 | RPL35A (UniProt P18077) | inactive: 0
26 | RPL38 (UniProt P63173) | inactive: 0
27 | RPS29 (UniProt P62273) | inactive: 0
28 | RPL22 (UniProt P35268) | inactive: 0
29 | RPS21 (UniProt P63220) | inactive: 0
30 | RPS14 (UniProt P62263) | inactive: 0
31 | SDCCAG10 (UniProt Q6UX04) | inactive: 0
32 | SDSL (UniProt Q96GA7) | inactive: 0
33 | RNPS1 (UniProt Q15287) | inactive: 0
34 | SCO2 (UniProt O43819) | inactive: 0
35 | ROGDI (UniProt Q9GZN7) | inactive: 0
36 | RRM2B (UniProt Q7LG56) | inactive: 0
37 | RPS6KB1 (UniProt P23443) | inactive: 0
38 | RPL9 (UniProt P32969) | inactive: 0
39 | RPL11 (UniProt P62913) | inactive: 0
40 | RNF40 (UniProt O75150) | inactive: 0

3 entries from above, comma-delimited:
Row,Target,dose-dependent thermal stabilisation call
28,RPL22 (UniProt P35268),inactive: 0
31,SDCCAG10 (UniProt Q6UX04),inactive: 0
39,RPL11 (UniProt P62913),inactive: 0
